## Results of single-concentration screens

Values are the deposited “Percent Effect”, in %. The record does not define 0% and 100%; most values in the screen are far below 50% and negative numbers occur (in some assays of this library far below -100). This is an unselected part of the compounds tested.

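Whole-parasite assay of Trypanosoma brucei over 72 hours; the read-out is not stated. Compounds at 30 µM. The record gives no direction; compounds that gave an IC50 in retests scored well above the rest, so higher reads as stronger inhibition. Values scatter widely below zero; nearly all retest evidence comes from the higher of the two concentrations used. Of about 64,000 compounds tested this way, about 940 (1.5%) reached 50% or more in at least one test.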

Result for O=C(c1cccc(CNS(=O)(=O)c2ccccc2F)c1)N1CCCC1 was -8.876%.
Result for CS(=O)(=O)NCC1CCCN(C(=O)Nc2ccccc2F)C1 (centres unmarked) was -14.7%.
Result for Cc1cccc2[nH]c(C3CCCN(Cc4ccccc4C(=O)O)C3)nc12 (centres unmarked) was -18.22%.
Result for Cc1cnn(C2(C(=O)O)CCN(c3ccnc4cc(Cl)ccc34)CC2)c1 was -3.439%.
Result for Cc1nc(C)n(CC2CCCCN2CCCO)n1 (centres unmarked) was -23.98%.
Result for CCn1nccc1CNc1[nH]cnc2nc(C)nc1-2 was -56.16%.
Result for CN(C(=O)Cc1ccc(NC(=O)NC2CC2)cc1)c1ccccc1 was 15.1%.
Result for Cc1n[nH]c(C)c1C1CCCN1C(=O)NC(C)(C)C (centres unmarked) was -4.699%.
Result for CCOCC1CN(C(=O)c2cccs2)Cc2cnn(CC3CC3)c21 (centres unmarked) was -51.64%.
Result for Cc1ccc(CN2CCCn3nnc(COCC4CC4)c3C2)s1.O=C(O)C(F)(F)F was 22.43%.
Result for CC(C)NC(=O)CCNC(=O)c1cc(F)ccc1NS(C)(=O)=O was -87.4%.
Result for CCN(CC1CCOC1)C(=O)Cn1nnn(-c2cccs2)c1=O (centres unmarked) was -61.65%.
Result for O=C(Cn1cccn1)N1CCC(Oc2ccc(C(F)(F)F)cn2)CC1 was -3.584%.
Result for [H][C@@]12CN(Cc3ccc4c(c3)OCO4)C[C@]1([H])OCC(=O)N2 was -6.63%.
Result for COCCN1CCc2cc(C(=O)N(C)C)c(NCC3CC3)nc2CC1.O=C(O)C(F)(F)F.O=C(O)C(F)(F)F was -40.36%.
Result for COCc1ncn2c1CN(C(=O)c1ccco1)CC2 was -34.08%.
Result for CC(C)n1cc(CN2CCCN(C(=O)CC3CCCCC3)CC2)cn1 was -9.855%.
Result for Cc1ccn(-c2ccnc(N3CCSCC3)n2)n1 was -8.59%.
Result for COc1ccc(C(=O)N2CC(=O)N(CC3CC3)CC(O)C2)cc1 (centres unmarked) was -8.206%.
Result for Cc1noc(C2CCN(C(=O)c3ccc(N(C)C)nc3)CC2)n1 was -26.1%.
Result for CCN1CCNC(=O)C12CCN(S(=O)(=O)c1ccc(F)cc1)CC2 was -18.87%.
Result for CC1CCCCN1C(=O)c1coc(COc2cccc3cnccc23)n1 (centres unmarked) was 103.3%.
Result for O=C(NCC1CCN(CCc2ccccc2)C1)c1cc(Cl)c[nH]1 (centres unmarked) was -9.095%.
Result for [H][C@]12CNC[C@@]1(C(=O)NCCOc1ccccc1)CN(S(C)(=O)=O)C2 was 10.67%.
Result for COc1ccccc1OC1CN(c2ccncc2)C1 was -8.58%.
Result for Cn1nc(C2CCCN(Cc3ccc(F)cc3F)C2)c2nccnc21 (centres unmarked) was -15.09%.
Result for CCOC(=O)c1nc(COc2ccc(CC(N)=O)cc2)no1 was -46.6%.
Result for CC(NC(=O)N(C)Cc1cnn(C)c1)c1nncn1C (centres unmarked) was -5.875%.
Result for COC(=O)CCN(CC1CCCO1)C(=O)CCc1ccc(OC)cc1 (centres unmarked) was -52.73%.
Result for N#CC1(NC(=O)c2ccn(-c3ccccc3Cl)n2)CCSC1 (centres unmarked) was 1.809%.
Result for CSCC(C)N(C)C(=O)c1nn(-c2ccc(F)cc2C)cc1O (centres unmarked) was -7.29%.
Result for N#Cc1ccnc(N2CCN(CC(O)c3cc(F)ccc3F)CC2)c1 (centres unmarked) was -24.4%.
Result for Cn1nccc1CCC(=O)N1CCCC(Cc2cccnc2)C1 (centres unmarked) was 10.36%.
Result for CCCN1CCCN(c2ccc(-n3ccc(C)n3)nn2)CC1 was -16.36%.
Result for O=C(C1CCCO1)N1CCc2nnc(Cn3cccc3)n2CC1 (centres unmarked) was -61.15%.
Result for CN(C)CC(=O)N1CCc2ncnc(-c3ccoc3)c2CC1 was -31.17%.
Result for COC(=O)[C@H]1C[C@@H](O)CCN1S(=O)(=O)c1cc(Cl)ccc1OC was -7.962%.
Result for COc1cc(OC)cc(N2CCC(NCc3occc3C)C2=O)c1 (centres unmarked) was -60.68%.
Result for O=c1c2cnc(N3CCOCC3)nc2ccn1-c1ccccc1 was -16%.
Result for O=C(O)C(F)(F)F.[H][C@@]12CN(CC3CCOC3)C[C@]1([H])OCCN2c1cnccn1 (some centres unmarked) was -89.28%.
Result for O=C(O)C(F)(F)F.[H][C@@]12OCCN(C(=O)C3CCOCC3)[C@@]1([H])CC[C@H]2Oc1cccnc1 was -14.62%.
Result for CN(CCC#N)C(=O)CN1CCCC1c1ccsc1 (centres unmarked) was -49.74%.
Result for CN(Cc1cscn1)Cc1cc2c(cc1Br)OCO2 was -14.71%.
Result for O=C(c1cccnc1O)N1CCN(CCc2cccs2)CC1 was -1.906%.
Result for Cc1ccccc1CS(=O)(=O)c1nnc(C(C)NC(=O)OC(C)(C)C)o1 (centres unmarked) was -43.03%.
Result for O=S(=O)(c1ccc(N2CCCCC2)c2nonc12)N1CCCCC1 was -8.989%.
Result for O=C(NCCc1cccc(Cl)c1)C1CCOCC1 was -34.66%.
Result for COCCCN1CCC(NC(=O)C(C)C)CC1 was -15.67%.
Result for O=C(c1cccs1)N1CC[C@H](O)[C@@H]1Cc1ccccc1 was -23.75%.
Result for Cc1noc(CNC(=O)CN(C)c2nc3c(F)cccc3s2)n1 was -14.46%.
Result for Cc1ccc(C(=O)NCC2CCN(C)c3ccccc32)c(=O)[nH]1 (centres unmarked) was -24.36%.
Result for CN1CCCN(c2nc(C3CC3)ns2)CC1 was -35.88%.
Result for O=C(c1cc(F)ccc1F)C1CCN(C(=O)c2ccc(=O)[nH]n2)CC1 was -14.09%.
Result for COc1ccccc1/C=C/CNCC1CCc2nncn2C1 (centres unmarked) was -6.689%.

Repeated from the top, 6 entries:

structure,percent effect
O=C(c1cccc(CNS(=O)(=O)c2ccccc2F)c1)N1CCCC1,-8.876%
CS(=O)(=O)NCC1CCCN(C(=O)Nc2ccccc2F)C1 (centres unmarked),-14.7%
Cc1cccc2[nH]c(C3CCCN(Cc4ccccc4C(=O)O)C3)nc12 (centres unmarked),-18.22%
Cc1cnn(C2(C(=O)O)CCN(c3ccnc4cc(Cl)ccc34)CC2)c1,-3.439%
Cc1nc(C)n(CC2CCCCN2CCCO)n1 (centres unmarked),-23.98%
CCn1nccc1CNc1[nH]cnc2nc(C)nc1-2,-56.16%

Source: ChEMBL document CHEMBL3988442, “University of Dundee, Small-Polar-MMV Screening Library” (2021).